Assay results from patent publication US20220142991A1, “METHODS AND COMPOSITIONS FOR TREATMENT OF L YSOSOMAL STORAGE DISORDER” (CHILDREN'S HOSPITAL MEDICAL CENTER, priority 2019, published 2022).
At least one compound was matched to its structure with a doubt left.

Test system: mTORC1 signaling pathway
Assay: Western blot of phospho-S6 (Ser235/236) in midbrain tissue
Assay type: in vivo, mouse
Conditions: Day 55, upregulated 2.2-fold in nGD brain

## CO[C@H]1C[C@@H]2CC[C@@H](C)[C@@](O)(O2)C(=O)C(=O)N2CCCC[C@H]2C(=O)O[C@H]([C@H](C)C[C@@H]2CC[C@@H](O)[C@H](OC)C2)CC(=O)[C@H](C)/C=C(\C)[C@@H](O)[C@@H](OC)C(=O)[C@H](C)C[C@H](C)/C=C/C=C/C=C/1C [rapamycin]
  phospho-S6 (Ser235/236): normalized
